{"sequences": {"note": "Amino acid sequences for entries named in this document (tags omitted).", "UniProt Q39255": "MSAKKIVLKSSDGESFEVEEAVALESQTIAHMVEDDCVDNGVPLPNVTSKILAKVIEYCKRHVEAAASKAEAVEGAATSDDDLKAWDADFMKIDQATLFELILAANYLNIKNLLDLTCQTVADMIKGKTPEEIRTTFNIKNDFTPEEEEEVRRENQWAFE"}, "source": "paper PMC4653730", "molecules": {"B1": {"name": "Gal4AD-ASK4 (protein, UniProt Q9LNT9 1-163)", "chain": "MAETKKMIILKSSDGESFEIEEAVAVKSQTIKHMIEDDCADNGIPLPNVTGAILAKVIEYCKKHVEAAAEAGGDKDFYGSAENDELKNWDSEFVKVDQPTLFDLILAANYLNIGGLLDLTCKAVADQMRGKTPEQMRAHFNIKNDYTPEEEAEVRNENKWAFE"}, "B2": {"name": "Gal4AD-ASK13 (protein, UniProt Q9M1X5 1-154)", "chain": "MSKMVMLLSSDGESFQVEEAVAVQSQTIAHMIEDDCVANGVPIANVTGVILSKVIEYCKKHVVSDSPTEESKDELKKWDAEFMKALEQSSTLFDVMLAANYLNIKDLLDLGCQTVADMITGKKPDEIRALLGIENDFTPEEEEEIRKENQWAFE"}, "B3": {"name": "Gal4AD-ASK18 (protein, UniProt Q9SY65 1-158)", "chain": "MSSNKILLTSSDGESFEIDEAVARKFLIIVHMMEDNCAGEAIPLENVTGDILSKIIEYAKMHVNEPSEEDEDEEAKKNLDSWDAKFMEKLDLETIFKIILAANYLNFEGLLGFASQTVADYIKDKTPEEVREIFNIENDFTPEEEEEIRKENAWTFNE"}, "B4": {"name": "Gal4AD-ASK10 (protein, UniProt Q9LSX8 1-152)", "chain": "MSTKKIILKSSDGHSFEVEEEAACQCQTIAHMSEDDCTDNGIPLPEVTGKILEMVIEYCNKHHVDAANPCSDEDLKKWDKEFMEKYQSTIFDLIMAANYLNIKSLLDLACQTVADMIKDNTVEHTRKFFNIENDYTHEEEEAVRRENQWGFE"}, "B5": {"name": "Gal4AD-ASK11 (protein, UniProt O49484 1-152)", "chain": "MSSKMIVLMSSDGQSFEVEEAVAIQSQTIAHMVEDDCVADGIPLANVESKILVKVIEYCKKHHVDEANPISEEDLNNWDEKFMDLEQSTIFELILAANYLNIKSLLDLTCQTVADMIKGKTPEEIRSTFNIENDFTPEEEEAVRKENQWAFE"}, "B6": {"name": "Gal4AD-ASK21 (protein, UniProt Q8LF97 1-351)", "chain": "MSEGEMAIIKPEMMKSYIWLETADGSIQQVEQEVAMFCPMICQEVIQKGVGSSKNYAISLPQRVNPAMLSLIFDYCRFHQVPGRSNKERKVYDEKFIRMDTKRLCELTSAADSLQLKPLVDLTSRALARIIEGKTPEEIREIFHLPDDLTEEEKLEPLKNTMDDPRIRLLNRLYAKKRKELKEREKLKSVEVEEHVDERSVDDLLSFINGRDPKVVKTSKSKKKNKKRKEQKNGSSNGTCEALEKDLHNLDSKSQSAEIVDNTASCLGDVSNLPSMEDDIFTPKTEFEDGYIDDEIDPALKELLDREVEDFARRLNSSWVLSIGQERQPVNFSINGNGTSRRLTGPAAGHK"}, "B7": {"name": "Gal4AD-VIP1 (protein, UniProt Q9MA75 1-341)", "chain": "MEGGGRGPNQTILSEIEHMPEAPRQRISHHRRARSETFFSGESIDDLLLFDPSDIDFSSLDFLNAPPPPQQSQQQPQASPMSVDSEETSSNGVVPPNSLPPKPEARFGRHVRSFSVDSDFFDDLGVTEEKFIATSSGEKKKGNHHHSRSNSMDGEMSSASFNIESILASVSGKDSGKKNMGMGGDRLAELALLDPKRAKRILANRQSAARSKERKIRYTGELERKVQTLQNEATTLSAQVTMLQRGTSELNTENKHLKMRLQALEQQAELRDALNEALRDELNRLKVVAGEIPQGNGNSYNRAQFSSQQSAMNQFGNKTNQQMSTNGQPSLPSYMDFTKRG"}, "B8": {"name": "Gal4AD-VIP2 (protein, UniProt Q9FPW4 1-614)", "chain": "MSNLHSSLNGSASNLPDGSGRSFTASYSGQSGAPSPSFHHTGNLQGLHNIHGNYNVGNMQGTLTSRNSSMNSIPSAGVQQPNGSFSSGRFASNNLPVNLSQLSHGSSHGHSGIPNRGLNVVGNPGFSSNANGVGGSIPGILSTSAGLSNRNSVPGMGISQLLGNSGPRITNSMGNMVGGGNLGRNISSGGLSIPGLSSRLNLAANSGSGLNVQGQNRMMGGVLPQGSQVMSMLGNSYHTGGGPLSQNHVQSVNNMMLSDHPNDSSLFDINNDFPQLTSRPGSAGGTQGHLGSLRKQGLGVPLVQQNQEFSIQNEDFPALPGYKGGNSEYPMDLHQKEQLHDNAMSMMHSQNFSMGRSGGFNLGATYSSHRPQQQPQHTSSTGGLQGLGLRPLSSPNAVSSIGYDQLIQQYQQHQNQSQFPVQQMSSINQFRDSEMKSTQSEADPFCLLGLLDVLNRSNPELTSLALGIDLTTLGLDLNSTGNLYKTFASPWTNEPAKSEVEFTVPNCYYATEPPPLTRASFKRFSYELLFYTFYSMPKDEAQLYAADELYERGWFYHKELRVWFFRVGEPLVRAATYERGTYEYLDPNSFKTVRKEHFVIKYELMEKRPSLLQL"}}, "note": "Results are given in words; binding and its absence hold for the method and conditions named. A result given as binding can be weak or reduced; the word gives no strength."}
{"molecular_target": "LexA-C58VirF (Agrobacterium tumefaciens C58-C1) (UniProt Q7D2D9)", "assay": "two-hybrid; yeast strain L40 co-transformed with LexA fusions (pSTT91) and Gal4AD fusions (pGAD424); interaction read as histidine prototrophy, growth on SD-Leu-Trp-His, 2-3 days at 28 °C"}
{"molecule": "Gal4AD-ASK1 (from UniProt Q39255 1-160)", "binding": "binds"}
{"molecule": "B1", "binding": "binds"}
{"molecule": "B2", "binding": "binds"}
{"molecule": "B3", "binding": "binds"}
{"molecule": "B4", "binding": "no binding"}
{"molecule": "B5", "binding": "no binding"}
{"molecule": "B6", "binding": "no binding"}
{"molecule": "B7", "binding": "no binding"}
{"molecule": "B8", "binding": "no binding"}
